Results as given in patent US5407823A, “Polypeptides having a dopaminergic receptor activity, nucleic acids coding for these polypeptides and use of these polypeptides for the screening of substances active on these polypeptides” (priority 1990, dated 1995).

Sequences of proteins named here, by UniProt entry; tags and fusion partners are left off.
UniProt P19020, whole entry: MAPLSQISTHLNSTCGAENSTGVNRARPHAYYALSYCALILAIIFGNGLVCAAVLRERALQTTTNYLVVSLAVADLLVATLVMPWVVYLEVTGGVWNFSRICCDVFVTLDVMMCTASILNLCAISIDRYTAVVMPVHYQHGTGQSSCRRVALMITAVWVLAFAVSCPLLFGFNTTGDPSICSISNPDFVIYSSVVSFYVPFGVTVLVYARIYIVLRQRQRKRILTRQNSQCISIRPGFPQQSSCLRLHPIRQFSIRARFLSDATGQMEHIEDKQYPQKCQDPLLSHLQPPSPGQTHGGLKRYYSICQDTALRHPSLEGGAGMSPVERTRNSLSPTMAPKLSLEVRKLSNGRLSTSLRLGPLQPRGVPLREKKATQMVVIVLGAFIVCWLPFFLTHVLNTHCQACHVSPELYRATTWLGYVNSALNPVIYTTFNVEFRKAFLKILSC

Biological target: T1, D-3 receptor expressed in CHO cells (Rattus norvegicus, UniProt P19020)
T1 construct: expressed in transfected cells
Experiment: Inhibition of 125I-iodosulpride binding to membranes of transfected CHO cells (D-3)
Text: As far as the measurement of the affinity of the agonists or antagonists towards the polypeptides of the invention is concerned, it may be made under the following conditions:
The terms agonists and antagonists refer to the actions of the medicines on the D-2 receptors.
The β2 adrenergic receptor is excised from pSV β2 -MDH by digestions with HindIII and EcoRI and replaced by a SmaI-EcoRI restriction fragment of the clone of the D-2A receptor by using a blunt-ended HindIII nucleotide adaptor leading to the plasmid pSV D-2. The vector needed to express the D-3 receptor is obtained by replacing the HindIII-BglII restriction fragment of pSV D-2 by a EcoRI-BglII restriction fragment of the clone RT-PCR B, by using a HindIII-EcoRI oligonucleotide adaptor leading to the plasmid pSV D-3. […] The stable transfectants are selected in a culture medium (Dulbecco's Modified Eagle medium) not containing hypoxanthine and thymidine.

CSc1ccc2c(c1)N(CCC1CCCCN1C)c1ccccc1S2 (stereo not shown) [Thioridazine]
Ki: 7.9 ± 0.8 nM
